{"source": "patent US20080113938A1", "about": "“ACCELERATOR FOR MINERAL ABSORPTION AND USE THEREOF” (KABUSHIKI KAISHA HAYASHIBARA SEIBUTSU KAGAKU KENKYUJO, priority 2003, published 2008)", "test": "Remaining cyclic tetrasaccharide in contents of alimentary canal and excrement of rats", "assay_type": "in vivo, Wister rats", "conditions": "depending on the amount of cyclic tetrasaccharide", "from_the_text": "Forty of Wister rats weighing 110 to 120 g (five-weeks aged male, commercialized by Charles River Japan Inc., Yokohama, Japan) were bred with a feed containing ingredients (%) shown in Table 1 for one week in order to be familiarized. The familiarized rats were randomly divided into four groups with ten rats each. Each group was experimentally bred for eight weeks with either a feed without cyclic tetrasaccharide shown in Table 1 (hereinafter, it is called as “basic feed”), or another feed of basic feed supplemented with 1%, 2% or 5% on a dry solid basis, of cyclic tetrasaccharide in a crystalline anhydrous powder form with a purity of 99.5%, prepared in the following Example A-3. […]\nTwo days before the end of the breeding test, rats were placed into a gauge for measuring metabolism to collect their excrement in two days. […] The following(s) explain the methods of quantitative analysis of cyclic tetrasaccharide and the methods of measurement of minerals and chromium.\nOne gram of a feed was admixed with 5 ml of 80% ethanol heated at 85° C. under reflux for 15 minutes to extract saccharides. […] The amount of cyclic tetrasaccharide was quantified by using nitrogen gas as a carrier (35 ml/min). […] The resulting samples were subjected to TMS derivatization in a usual manner and quantified by gas chromatography. […]", "data": [{"smiles": "OC[C@H]1O[C@@H]2OC[C@H]3O[C@H](O[C@@H]4[C@@H](O)[C@@H](OC[C@H]5O[C@H](O[C@H]([C@H]2O)[C@@H]1O)[C@H](O)[C@@H](O)[C@@H]5O)O[C@H](CO)[C@H]4O)[C@H](O)[C@@H](O)[C@@H]3O", "note": "[cyclic tetrasaccharide, cyclo{>6)-α-D-glucopyranosyl-(1>3)-α-D-glucopyranosyl-(1>6)-α-D-glucopyranosyl-(1>3)-α-D-glucopyranosyl-(1>}]", "values": [{"measurement": "amount of organic acids including lactic acid", "value": "increased"}, {"measurement": "pH", "value": "pH reduction was observed"}]}]}
